Source: patent US20060029995A1, “Novel class of metacaspases” (Vlaams Interuniversitair Instituut Voor Biotechnologie VZW, priority 2003, published 2006)
At least one structure is not confirmed: it was looked up by name or label, or the drawing left a doubt. Starred links: 1 amine or outer side, 2 acyl side, 3 side chain; linkers in the order of their positions; H or OH if unused. Residues, ends and D or L forms follow the SMILES beside them. CO = O=C([*:1])[*:2]

Molecular target: T1, Atmc9 (Arabidopsis thaliana, UniProt Q9FYE1)
T1 construct: it indeed consists of amino acids 184 to 325 (calculated mass 15427 Da); made in house; host or cells: E. coli BL21(DE3), pDEST17, Ni-NTA purified
T1 sequence (Q9FYE1 1-183 limits assumed): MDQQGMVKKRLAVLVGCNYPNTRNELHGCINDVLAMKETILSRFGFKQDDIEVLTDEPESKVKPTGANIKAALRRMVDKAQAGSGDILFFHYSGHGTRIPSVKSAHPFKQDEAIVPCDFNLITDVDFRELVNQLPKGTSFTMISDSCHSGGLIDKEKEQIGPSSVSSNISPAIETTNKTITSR
T1 sequence (Q9FYE1 184-325 limits assumed): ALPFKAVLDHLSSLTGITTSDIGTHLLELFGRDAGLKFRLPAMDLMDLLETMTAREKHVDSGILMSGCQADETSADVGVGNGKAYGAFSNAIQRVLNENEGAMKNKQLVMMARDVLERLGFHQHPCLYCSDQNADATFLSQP
Assay type: biochemical
Settings: at concentrations as low as 1 μM
Procedure: Assays were performed in 150 μl with 400 ng of purified Atmc9 and 50 μM substrate in an optimized metacaspase 9 assay buffer (50 mM MES pH 5.3, 10% (w/v) sucrose, 0.1% (w/v) 3-[(3-cholamidopropyl)dimethylammonio]-1-propanesulfonate [CHAPS], 10 mM DTT). Time-dependent release of free amido-4-methylcoumarin (AMC) was measured on a Cytofluor 4000 fluorescence microplate reader (PerSeptive Biosystems, Farmingham, Md., USA).
We also assessed the sensitivity of Atmc9 for several protease inhibitors, chelating agents, metal ions, and stabilizing agents in the GKR-ase assay (Table 2). […] To optimize the assay conditions for Atmc9 activity, several stabilizing agents were tested.
Percentage of the activity of recombinant Atmc9 in 50 mM MES (pH 5.3) and 10 mM DTT.

## CC(C)[C@H](NC(=O)[C@H](CCCNC(=N)N)NC(=O)N[C@@H](Cc1ccccc1)C(=O)O)C(=O)N[C@H](C=O)CCCNC(=N)N [Antipain] ({Phe-CO}-Arg-Val-Arg-aldehyde)
  inhibition of Atmc9: strongly inhibited
